According to PMC11837641:
No constants are given. Whether binding was seen depends on the method and setting. In cells and extracts the contact can be indirect. A yes stands for co-enrichment or nearness to the bait. Other partners may have been found.

Sequences of proteins named here, by UniProt entry; tags and fusion partners are left off. A change or cut given only in a name is not applied to a line headed by its entry.
UniProt Q9H239: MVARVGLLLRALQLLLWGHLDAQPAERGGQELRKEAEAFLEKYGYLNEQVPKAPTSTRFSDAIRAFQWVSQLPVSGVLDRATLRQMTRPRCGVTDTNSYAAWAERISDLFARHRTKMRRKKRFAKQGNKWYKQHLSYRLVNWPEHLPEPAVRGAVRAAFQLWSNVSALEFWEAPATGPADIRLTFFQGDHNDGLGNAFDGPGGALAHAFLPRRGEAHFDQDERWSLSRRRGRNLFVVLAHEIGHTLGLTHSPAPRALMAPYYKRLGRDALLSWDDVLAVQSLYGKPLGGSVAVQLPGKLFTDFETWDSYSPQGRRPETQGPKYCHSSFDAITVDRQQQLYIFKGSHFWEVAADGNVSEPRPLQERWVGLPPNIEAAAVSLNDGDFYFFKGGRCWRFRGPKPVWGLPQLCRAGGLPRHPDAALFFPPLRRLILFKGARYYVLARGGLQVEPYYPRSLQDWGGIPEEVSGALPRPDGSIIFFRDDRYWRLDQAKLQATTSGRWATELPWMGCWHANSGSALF

B1: MIF (protein, UniProt P14174 1-115)
chain: MPMFIVNTNVPRASVPDGFLSELTQQLAQATGKPPQYIAVHVVPDQLMAFGGSSEPCALCSLHSIGKIGGAQNRSYSKLLCGLLAERLRISPDRVYINYYDMNAANVGWNNSTFA
B2: YWHAQ (protein, UniProt P27348 1-245)
chain: MEKTELIQKAKLAEQAERYDDMATCMKAVTEQGAELSNEERNLLSVAYKNVVGGRRSAWRVISSIEQKTDTSDKKLQLIKDYREKVESELRSICTTVLELLDKYLIANATNPESKVFYLKMKGDYFRYLAEVACGDDRKQTIDNSQGAYQEAFDISKKEMQPTHPIRLGLALNFSVFYYEILNNPELACTLAKTAFDEAIAELDTLNEDSYKDSTLIMQLLRDNLTLWTSDSAGEECDAAEGAEN
B3: MDH2 (protein, UniProt P40926 25-338)
chain: AKVAVLGASGGIGQPLSLLLKNSPLVSRLTLYDIAHTPGVAADLSHIETKAAVKGYLGPEQLPDCLKGCDVVVIPAGVPRKPGMTRDDLFNTNATIVATLTAACAQHCPEAMICVIANPVNSTIPITAEVFKKHGVYNPNKIFGVTTLDIVRANTFVAELKGLDPARVNVPVIGGHAGKTIIPLISQCTPKVDFPQDQLTALTGRIQEAGTEVVKAKAGAGSATLSMAYAGARFVFSLVDAMNGKEGVVECSFVKSQETECTYFSTPLLLGKKGIEKNLGIGKVSSFEEKMISDAIPELKASIKKGEDFVKTLK
B4: PRDX6 (protein, UniProt P30041 1-224)
chain: MPGGLLLGDVAPNFEANTTVGRIRFHDFLGDSWGILFSHPRDFTPVCTTELGRAAKLAPEFAKRNVKLIALSIDSVEDHLAWSKDINAYNCEEPTEKLPFPIIDDRNRELAILLGMLDPAEKDEKGMPVTARVVFVFGPDKKLKLSILYPATTGRNFDEILRVVISLQLTAEKRVATPVDWKDGDSVMVLPTIPEEEAKKLFPKGVFTKELPSGKKYLRYTPQP
B5: TKT (protein, UniProt P29401 1-623)
chain: MESYHKPDQQKLQALKDTANRLRISSIQATTAAGSGHPTSCCSAAEIMAVLFFHTMRYKSQDPRNPHNDRFVLSKGHAAPILYAVWAEAGFLAEAELLNLRKISSDLDGHPVPKQAFTDVATGSLGQGLGAACGMAYTGKYFDKASYRVYCLLGDGELSEGSVWEAMAFASIYKLDNLVAILDINRLGQSDPAPLQHQMDIYQKRCEAFGWHAIIVDGHSVEELCKAFGQAKHQPTAIIAKTFKGRGITGVEDKESWHGKPLPKNMAEQIIQEIYSQIQSKKKILATPPQEDAPSVDIANIRMPSLPSYKVGDKIATRKAYGQALAKLGHASDRIIALDGDTKNSTFSEIFKKEHPDRFIECYIAEQNMVSIAVGCATRNRTVPFCSTFAAFFTRAFDQIRMAAISESNINLCGSHCGVSIGEDGPSQMALEDLAMFRSVPTSTVFYPSDGVATEKAVELAANTKGICFIRTSRPENAIIYNNNEDFQVGQAKVVLKSKDDQVTVIGAGVTLHEALAAAELLKKEKINIRVLDPFTIKPLDRKLILDSARATKGRILTVEDHYYEGGIGEAVSSAVVGEPGITVTHLAVNRVPRSGKPAELLKMFGIDRDAIAQAVRGLITKA
B6: CCDC129 (protein, UniProt Q6ZRS4 1-1044)
chain: MMAQKSQGSDNLQEGQEKSKREILKCTKSAWAPLDEWLPPDPEEESQSLTIPMLEDSKQESIQQWLDSGFFVSANENFQQVIDRTVSLYEQGMVQMTVKDYMRSLHQFSETPILSRGTSFNSCYSTASVPQSIPEWLEFWEIDPVEILLDLGFGADEPDICMQIPARFLGCGSAARGINIRVFLEAQKQRMDIENPNLYGRFRQLEILDHVTNAFSSLLSDVSILPNRAEEKAGGESVQRTSVSAAKEHRRRMGKLLRRASKQNIRRDCNPEVSESFKVKDEVFVPFTKPWDCGAELAATSINHKQNHLSLSVEHQSLQACDDLLPYPPHGLLSKQWPCSSMPAKQAPPSCVSEGSVKGRTQKENLFQTNKLKSLSHLAGKGPDSFEMEEVQSFEEETGNPLDMTSGTVGARVDRANSCQSDSSGFLEEPLEPLPLQMPSLPNSQSPAENGGRKPRDQSHSLVSSQDCQLESDGPDSKSRASMSFSSQEANALEQRASVSVMEEEFLLEAMEGPPELYIPDMACAKTTTRGECPRKDSHLWQLLPMPHAEYEVTRPTATSKYDHPLGFMVTHVTEMQDSFVRPEGAGKVQSHHNESQRSPGNDHTQDKFLHVDSEAPREEESSGFCPHTNHSLLVPESSSQCIPKHSEITPYATDLAQTSEKLIPHLHKLPGDPAQVKSRSGTLGQILPGTEAEMENLPLNTGSSRSVMTQMSSSLVSAAQRAVALGTGPRGTSLECTVCDPVTATETRLGTKARQLNDASIQTSALSNKTLTHGPQPLTKSVSLDSGFSSICPMGTCHAIPAHCCICCHHHPHCHGERQSPGPEPSVCRHCLCSLTGHQEAQFMTTLKALQDTTVRELCSCTVHEMEAMKTICQSFREYLEEIEQHLMGQQALFSRDMSEEEREEAEQLQTLREALRQQVAELEFQLGDRAQQIREGILLQLEVLTAEPPEHYSNLHQYNWIEESNGQTSCSKIHPGMAPRTVFPPDDGQEAPCSGGTQLAAFTPPTLENSTRMSPSSSAWAKLGPTPLSNCPVGEKDADVFL
B7: CCBL1 (protein, UniProt Q16773 1-422)
chain: MAKQLQARRLDGIDYNPWVEFVKLASEHDVVNLGQGFPDFPPPDFAVEAFQHAVSGDFMLNQYTKTFGYPPLTKILASFFGELLGQEIDPLRNVLVTVGGYGALFTAFQALVDEGDEVIIIEPFFDCYEPMTMMAGGRPVFVSLKPGPIQNGELGSSSNWQLDPMELAGKFTSRTKALVLNTPNNPLGKVFSREELELVASLCQQHDVVCITDEVYQWMVYDGHQHISIASLPGMWERTLTIGSAGKTFSATGWKVGWVLGPDHIMKHLRTVHQNSVFHCPTQSQAAVAESFEREQLLFRQPSSYFVQFPQAMQRCRDHMIRSLQSVGLKPIIPQGSYFLITDISDFKRKMPDLPGAVDEPYDRRFVKWMIKNKGLVAIPVSIFYSVPHQKHFDHYIRFCFVKDEATLQAMDEKLRKWKVEL
B8: FEM1A (protein, UniProt Q9BSK4 1-669)
chain: MDLRTAVYNAARDGKLQLLQKLLSGRSREELDELTGEVAGGGTPLLIAARYGHLDVVEYLVDRCGASVEAGGSVHFDGETIEGAPPLWAASAAGHLDVVRSLLRRGASVNRTTRTNSTPLRAACFDGHLEVVRYLVGEHQADLEVANRHGHTCLMISCYKGHREIARYLLEQGAQVNRRSAKGNTALHDCAESGSLEILQLLLGCKARMERDGYGMTPLLAASVTGHTNIVEYLIQEQPGQEQVAGGEAQPGLPQEDPSTSQGCAQPQGAPCCSSSPEEPLNGESYESCCPTSREAAVEALELLGATYVDKKRDLLGALKHWRRAMELRHQGGEYLPKPEPPQLVLAYDYSREVNTTEELEALITDPDEMRMQALLIRERILGPSHPDTSYYIRYRGAVYADSGNFERCIRLWKYALDMQQSNLEPLSPMTASSFLSFAELFSYVLQDRAAKGSLGTQIGFADLMGVLTKGVREVERALQLPREPGDSAQFTKALAIILHLLYLLEKVECTPSQEHLKHQTVYRLLKCAPRGKNGFTPLHMAVDKDTTNVGRYPVGRFPSLHVVKVLLDCGADPDSRDFDNNTPLHIAAQNNCPAIMNALIEAGAHMDATNAFKKTAYELLDEKLLARGTMQPFNYVTLQCLAARALDKNKIPYKGFIPEDLEAFIELH
B9: C2orf78 (protein, UniProt A6NCI8 1-922)
chain: MHWLASATQTSASIVSSSLLSAVDVSSSLTMSEYFQNTSLPGTANSRQFSLPVVSNAAFLTGSISNFSRASAPAISSAWLQPSASGTSFQPLMGSAYLYQHSSTTMLSGVTGQSHICTSAASYPGVFEWDSTASTVKKSSSLRDFTVTVIDQNTAVSSMSMTAQYYKTSDTNTMVPLYPSLSASLVQGTLTQIPNQQGHNLSLPCQIGSQVYYYNQGTLGPQLSCLQSYGSVSYTGYRASAHQPEMVMVLKEVQPTNVLPPVSTSGMYYSVSSQPITETSVQVMETSLGMDTSLGLQSPSQTFCLPQTPEFSKSFSSRNTQTLESNPSPELGDISITPVQSPTNLLTLSPAPSQEKNENENLDEIKTNLSKPLDVHQILIGNQDPPLLPVEIPDIHPLLACIDPLGQEEQPGSENANLRNKSLSLEDQGIFENGIESSSDLADITTWVEDTYLPPIFSSLQDLDQPESPSAKKAKDTSAIKVNQVQEKSCVIKGHSDQVRKNKHKASEPIQGAPKAKIQPKNPECLLEREVVVGSATVSNSASVNKAKHSSNKPHKAASSRISKTKSHGQEKTKGNRKNSSKKSEESKQSGKKVKVEEKQTIPNMKRKKNQPELSQKTLKKPRSSLGMHMLESVQVFHALGKKIDMKTGFSSSRTLGSSSNTQNRQPFPALKPWLDIQHEGKGPEKIQVKAQKLDGSAEKECTSPSHSELPPPGKVKLIPLPFLTLDQPQARHVSRRPNPLASRRPAVAYPARPDSTNSAQSNAVNPSRPAPTNTSLTGPATPAQPISAKATQPSSANPTQPTVPQSAASRPSAYKTSSCSSLQREPVSTAVTSLRSLPKPQNQFLIQDFSLQPRPWRKPTVPEPVMSTPITEEQRPEREAMKRKAQQERENAAKYTSLGKVQFFIERERDMEIAEYYGYTI
B10: CRTAC1 (protein, UniProt Q9NQ79 28-661)
chain: SQRAEPMFTAVTNSVLPPDYDSNPTQLNYGVAVTDVDHDGDFEIVVAGYNGPNLVLKYDRAQKRLVNIAVDERSSPYYALRDRQGNAIGVTACDIDGDGREEIYFLNTNNAFSGVATYTDKLFKFRNNRWEDILSDEVNVARGVASLFAGRSVACVDRKGSGRYSIYIANYAYGNVGPDALIEMDPEASDLSRGILALRDVAAEAGVSKYTGGRGVSVGPILSSSASDIFCDNENGPNFLFHNRGDGTFVDAAASAGVDDPHQHGRGVALADFNRDGKVDIVYGNWNGPHRLYLQMSTHGKVRFRDIASPKFSMPSPVRTVITADFDNDQELEIFFNNIAYRSSSANRLFRVIRREHGDPLIEELNPGDALEPEGRGTGGVVTDFDGDGMLDLILSHGESMAQPLSVFRGNQGFNNNWLRVVPRTRFGAFARGAKVVLYTKKSGAHLRIIDGGSGYLCEMEPVAHFGLGKDEASSVEVTWPDGKMVSRNVASGEMNSVLEILYPRDEDTLQDPAPLECGQGFSQQENGHCMDTNECIQFPFVCPRDKPVCVNTYGSYRCRTNKKCSRGYEPNEDGTACVGTLGQSPGPRPTTPTAAAATAAAAAAAGAATAAPVLVDGDLNLGSVVKESCEPSC

target: matrix metalloproteinase 28 (MMP28) (human (endogenous in AsPC-1 and BxPC-3)) (UniProt Q9H239); experiment: affinity purification with mass spectrometry; AsPC-1 whole-cell lysate (enhanced RIPA buffer) incubated with MMP28 antibody or IgG control at 4 °C overnight, protein A/G agarose 3 h, five RIPA washes; LC-MS/MS; top 30 candidates listed

binding, binds:
B1, B2, B3, B4, B5

target: matrix metalloproteinase 28 (MMP28) (human (endogenous in AsPC-1 and BxPC-3)) (UniProt Q9H239); experiment: affinity purification with mass spectrometry; BxPC-3 whole-cell lysate (enhanced RIPA buffer) incubated with MMP28 antibody or IgG control at 4 °C overnight, protein A/G agarose 3 h, five RIPA washes; LC-MS/MS; top 30 candidates listed

binding, binds:
B5, B6, B7, B8, B9, B10
